Source: PubChem BioAssay AID2417 (National Center for Advancing Translational Sciences (NCATS), 2010)
The whole screen tested about 140,000 compounds, of which about 4,300 (3.1%) were called active. Inconclusive results, whose numbers are uncertain, are shown with a selection of clear calls.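 The calls were made as follows: active = readout at or below -70, meaning at least 70% loss of cells showing the perinucleolar compartment, a nuclear body marking cancer cells; inconclusive = readout between -30 and a set limit; inactive = the rest.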

Assay: High Content Assay for Compounds that inhibit the Assembly of the Perinucleolar Compartment;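 also: plate controls were DMSO wells for no effect and camptothecin positive control wells for full effect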
Conditions: PC3M PTB-GFP, PNC prevalence imaging, 16 h; at 10 µM; active compounds read low
Outline: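 Compounds are pinned in duplicate onto adhered PC3M cells stably expressing GFP-tagged PTB and incubated 16 h at 37 C. Cells are then fixed, nuclei stained with Hoechst, and PNC-positive cells counted.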
With `Fc1ccc(Sc2ccccc2CNC2=NCCN2)cc1` the activity change (PNC), negative = inhibition was inconclusive: -54.2%.
For `CCN(Cc1ccncc1)C(=S)Nc1c(C)cccc1C`, the activity change (PNC), negative = inhibition was inconclusive: -30.2%.
In the case of `Cc1cccc(NC2=C/C(=N/S(=O)(=O)c3cccs3)c3ccccc3C2=O)c1`, the activity change (PNC), negative = inhibition is reported as active: -97%.
With `O=C(NCc1cccs1)c1ccc([N+](=O)[O-])cc1Cl` the activity change (PNC), negative = inhibition was inactive: -28.8%.
With `N#Cc1c(N)nc2c(c1-c1ccccc1)CCCC2` the activity change (PNC), negative = inhibition was inconclusive: -37.4%.
With `O=C(O)c1cc([N+](=O)[O-])c(N2CCCC2)c([N+](=O)[O-])c1` the activity change (PNC), negative = inhibition was inactive: -25.1%.
For `O=C(N1CCCCC1)N1CCN(C(c2ccccc2)c2ccccc2)CC1`, the activity change (PNC), negative = inhibition was inactive: -16.4%.
In the case of `O=C(COc1cccnc1[N+](=O)[O-])Nc1cccc(S(=O)(=O)N2CCCCC2)c1`, the activity change (PNC), negative = inhibition is reported as inconclusive: -51.4%.
In the case of `O=C(Nc1cc(C(F)(F)F)ccc1N1CCCC1)c1ccc2c(c1)OCO2`, the activity change (PNC), negative = inhibition is reported as inconclusive: -50.1%.
With `COc1cccc(OCCCCN2CC(C)OC(C)C2)c1` (stereo unspecified) the activity change (PNC), negative = inhibition was inconclusive: -39.6%.
For `CCOc1cc2[nH]c(=S)n(CC3CCCO3)c(=O)c2cc1OCC` (stereo unspecified), the activity change (PNC), negative = inhibition was inactive: -0.747%.
For `c1cncc(-c2nn3cnnc3s2)c1`, the activity change (PNC), negative = inhibition was inactive: 31%.
In the case of `Cc1nc(CC(=O)c2ccc(O)cc2O)cs1`, the activity change (PNC), negative = inhibition is reported as inconclusive: -33.2%.
With `Cc1ccc(CNC(=O)c2ccc(CNc3c(N4CCCC4)c(=O)c3=O)cc2)cc1` the activity change (PNC), negative = inhibition was inactive: 5.47%.
For `Cc1ccc(-c2ccc(SCC(=O)c3ccccc3)nn2)cc1`, the activity change (PNC), negative = inhibition was inactive: 32.1%.
In the case of `O=C(Cn1nnc(-c2ccccc2)n1)c1ccccc1`, the activity change (PNC), negative = inhibition is reported as inconclusive: -44.8%.
In the case of `CC(C)COc1ccc(/C=C2/Sc3ccccc3C2=O)cc1`, the activity change (PNC), negative = inhibition is reported as inactive: 62.5%.
For `CCCCCC(=O)NNC(=O)c1ccc(F)cc1`, the activity change (PNC), negative = inhibition was inactive: 65.1%.
With `BrC(/C=N/Nc1nc(N2CCOCC2)nc(N2CCOCC2)n1)=C/c1ccccc1` the activity change (PNC), negative = inhibition was active: -95.6%.
For `O=C(Cc1ccc(F)cc1)N(c1ccc(F)cc1)C1C=CS(=O)(=O)C1` (stereo unspecified), the activity change (PNC), negative = inhibition was inconclusive: -53.5%.
In the case of `CC(C)CC(c1nnnn1C1CCCC1)N1CCN(c2ccccc2F)CC1` (stereo unspecified), the activity change (PNC), negative = inhibition is reported as inconclusive: -32.2%.
In the case of `CCOC(=O)NC(Nc1sc2c(c1C(=O)OC)CCN(C)C2)(C(F)(F)F)C(F)(F)F`, the activity change (PNC), negative = inhibition is reported as inactive: 31.2%.
In the case of `Cc1ccc(C(=O)NC(=S)NNS(=O)(=O)c2ccc(C)cc2)cc1`, the activity change (PNC), negative = inhibition is reported as inconclusive: -46.1%.
For `Cc1cc(=O)[nH]c2c1c(C)nn2C1CCCCC1`, the activity change (PNC), negative = inhibition was inconclusive: -40.6%.
With `O=C(NCCN1CCCC1)C1CCN(S(=O)(=O)N2CCC3(CC2)OCCO3)CC1` the activity change (PNC), negative = inhibition was inconclusive: -30.7%.
In the case of `Brc1ccc(-c2csc(-c3c[nH]c4ccccc34)n2)cc1`, the activity change (PNC), negative = inhibition is reported as inconclusive: -37.2%.
